Laboratory results published in article PMC11389407.
Results are given in words; binding and its absence hold for the method and conditions named. For some of these results: In cells and extracts the contact can be indirect. Some results given as binding are weak or reduced against the parent protein; the word gives no strength.

The chains behind the UniProt entries cited, without tags or fusion partners. Where a name states a change or a piece, a line headed by the entry shows the natural chain unless it says otherwise.
UniProt P08069: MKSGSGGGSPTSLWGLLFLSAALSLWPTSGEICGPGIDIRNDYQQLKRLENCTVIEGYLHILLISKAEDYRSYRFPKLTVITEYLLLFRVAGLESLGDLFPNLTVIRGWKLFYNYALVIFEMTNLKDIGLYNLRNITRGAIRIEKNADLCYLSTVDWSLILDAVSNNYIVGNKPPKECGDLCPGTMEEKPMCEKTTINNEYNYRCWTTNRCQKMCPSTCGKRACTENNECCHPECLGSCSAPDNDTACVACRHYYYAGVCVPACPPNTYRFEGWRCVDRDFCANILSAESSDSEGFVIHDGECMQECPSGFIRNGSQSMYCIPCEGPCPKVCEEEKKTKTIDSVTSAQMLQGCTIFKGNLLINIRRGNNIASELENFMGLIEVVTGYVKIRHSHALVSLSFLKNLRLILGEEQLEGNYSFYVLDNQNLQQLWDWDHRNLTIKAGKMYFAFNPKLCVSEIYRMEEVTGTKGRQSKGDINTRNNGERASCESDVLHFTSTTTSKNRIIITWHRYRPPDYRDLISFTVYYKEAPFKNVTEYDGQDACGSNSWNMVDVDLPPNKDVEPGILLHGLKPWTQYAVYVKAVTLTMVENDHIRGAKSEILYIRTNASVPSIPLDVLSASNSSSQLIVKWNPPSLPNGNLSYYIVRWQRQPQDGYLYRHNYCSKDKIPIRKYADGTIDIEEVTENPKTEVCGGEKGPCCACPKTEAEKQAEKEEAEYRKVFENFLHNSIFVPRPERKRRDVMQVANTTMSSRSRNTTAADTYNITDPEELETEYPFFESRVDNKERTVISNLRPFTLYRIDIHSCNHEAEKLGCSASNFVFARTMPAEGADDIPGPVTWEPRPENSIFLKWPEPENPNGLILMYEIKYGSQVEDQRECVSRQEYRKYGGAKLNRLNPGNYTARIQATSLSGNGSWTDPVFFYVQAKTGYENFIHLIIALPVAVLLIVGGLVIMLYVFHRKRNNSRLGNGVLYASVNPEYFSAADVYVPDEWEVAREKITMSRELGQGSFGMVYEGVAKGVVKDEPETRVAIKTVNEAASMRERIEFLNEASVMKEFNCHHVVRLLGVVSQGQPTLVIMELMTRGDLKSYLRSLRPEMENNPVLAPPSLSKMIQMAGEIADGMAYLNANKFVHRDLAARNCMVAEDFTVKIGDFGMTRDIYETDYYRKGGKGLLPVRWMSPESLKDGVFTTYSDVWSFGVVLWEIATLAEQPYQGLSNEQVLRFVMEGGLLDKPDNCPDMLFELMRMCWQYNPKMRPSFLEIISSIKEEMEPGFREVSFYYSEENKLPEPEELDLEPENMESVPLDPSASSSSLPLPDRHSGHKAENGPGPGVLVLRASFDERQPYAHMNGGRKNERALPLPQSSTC

Key:
[1] = target: RSV F (codon-optimized, in pcDNA3.1(+)) expressed in HEK293T cells (respiratory syncytial virus (strain of the construct not stated)) (UniProt P03420); experiment: co-IP; HEK293T transfected with plasmids expressing IGF1R, F-WT or F-K394R, with or without CL-A3-7 (20 µM) in the medium; lysates precipitated with anti-RSV F antibody on protein A/G beads, blotted for IGF1R
[2] = target: RSV F with the K394R mutation (codon-optimized, in pcDNA3.1(+)) expressed in HEK293T cells (respiratory syncytial virus (strain of the construct not stated)) (UniProt P03420); experiment: as above
[3] = target: RSV F (codon-optimized, in pcDNA3.1(+)) expressed in HEK293T cells (respiratory syncytial virus (strain of the construct not stated)) (UniProt P03420); experiment: flow cytometry on cells; HEK293T transfected with F-WT or F-K394R, soluble IGF1R (20 µg/mL) premixed with CL-A3-7 (20 µM) or not, added for 5 h; cells fixed, stained with anti-IGF1R and motavizumab; only the binder purified
[4] = target: RSV F with the K394R mutation (codon-optimized, in pcDNA3.1(+)) expressed in HEK293T cells (respiratory syncytial virus (strain of the construct not stated)) (UniProt P03420); experiment: as above

Row | Substance | binding [1] | binding [2] | binding [3] | binding [4]
1 | IGF1R expressed from a pcDNA3.1 plasmid in HEK293T cells (from UniProt P08069 31-1367) (receptor) | binds | binds |  | 
2 | extracellular domain of the human IGF1R protein (Met 1−Asn 932) (from UniProt P08069 31-932) (domain or fragment) |  |  | binds | binds
